{"sequences": {"note": "By UniProt entry, the sequences of proteins in these tests, tags left out. Where a name states a change or a piece, a line headed by the entry shows the natural chain unless it says otherwise.", "UniProt O70528": "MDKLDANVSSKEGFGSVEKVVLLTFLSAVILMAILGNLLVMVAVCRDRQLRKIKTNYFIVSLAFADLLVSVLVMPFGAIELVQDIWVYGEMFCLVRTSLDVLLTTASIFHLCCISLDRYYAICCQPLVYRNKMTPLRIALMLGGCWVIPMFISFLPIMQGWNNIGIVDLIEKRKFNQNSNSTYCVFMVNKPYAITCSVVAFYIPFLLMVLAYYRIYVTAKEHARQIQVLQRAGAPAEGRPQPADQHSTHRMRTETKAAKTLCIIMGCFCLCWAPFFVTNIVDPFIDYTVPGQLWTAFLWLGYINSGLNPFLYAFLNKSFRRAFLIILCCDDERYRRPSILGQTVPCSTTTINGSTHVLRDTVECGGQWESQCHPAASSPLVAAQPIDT", "UniProt P19327, whole entry, looked up": "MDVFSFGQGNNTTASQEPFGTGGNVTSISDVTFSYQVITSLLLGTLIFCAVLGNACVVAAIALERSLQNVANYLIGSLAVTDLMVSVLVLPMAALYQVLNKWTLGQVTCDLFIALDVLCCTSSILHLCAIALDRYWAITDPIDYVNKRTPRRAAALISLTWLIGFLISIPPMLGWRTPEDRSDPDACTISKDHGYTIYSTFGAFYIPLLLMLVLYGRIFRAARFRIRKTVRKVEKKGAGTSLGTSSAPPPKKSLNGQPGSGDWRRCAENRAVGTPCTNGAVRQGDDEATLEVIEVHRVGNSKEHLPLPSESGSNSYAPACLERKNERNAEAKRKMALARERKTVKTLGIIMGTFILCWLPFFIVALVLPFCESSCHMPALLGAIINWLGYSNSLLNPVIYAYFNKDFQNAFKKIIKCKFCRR", "UniProt P18090, whole entry, looked up": "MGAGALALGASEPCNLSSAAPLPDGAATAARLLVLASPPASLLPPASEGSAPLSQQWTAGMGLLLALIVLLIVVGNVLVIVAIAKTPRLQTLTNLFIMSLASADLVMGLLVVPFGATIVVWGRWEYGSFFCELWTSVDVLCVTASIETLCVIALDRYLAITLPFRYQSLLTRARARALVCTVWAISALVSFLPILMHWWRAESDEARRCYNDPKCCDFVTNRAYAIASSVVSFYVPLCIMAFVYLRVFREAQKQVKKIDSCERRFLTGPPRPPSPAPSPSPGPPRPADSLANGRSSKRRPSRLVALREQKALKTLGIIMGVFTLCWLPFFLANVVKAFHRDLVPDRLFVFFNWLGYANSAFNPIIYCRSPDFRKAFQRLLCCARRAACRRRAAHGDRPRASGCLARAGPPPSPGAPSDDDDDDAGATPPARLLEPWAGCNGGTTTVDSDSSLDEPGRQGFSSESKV"}, "source": "PubChem BioAssay (EPA / NIEHS)", "note": "Inconclusive means that the source gave no clear call. Such entries were picked first, then a sample of the others. A potency beside an inconclusive call is a rough fit, not a confirmed value. Calls of active or inactive are those of the source. How the source made its calls: active means hit-call score of the fitted dose curve at least 0.9, where 1 is the maximum; inconclusive means response in the unintended direction; inactive means score below 0.9.", "data": [{"target": "guinea pig Serotonin, 5-Hydroxytryptamine Receptor 4 (5HT4), HTR4 (gene 100135548) (UniProt O70528)", "assay": "NVS_GPCR_g5HT4: NovaScreen (NVS) G Protein-Coupled Receptor Assay for guinea pig Serotonin, 5-Hydroxytryptamine Receptor 4 (5HT4) (AID 2283294)", "method_in_brief": "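Compounds first screened in duplicate at 25 uM, actives followed up in concentration series. Binding measured as displacement of specific radioligand from guinea pig striatal membranes, 1 h, filter-based scintillation read-out versus DMSO baseline.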", "values": [{"smiles": "CO/C=C(/C(=O)OC)c1ccccc1COc1cccc(C(F)(F)F)n1", "AC50": "inconclusive: 7.16 µM"}, {"smiles": "CCCOCC(=Nc1ccc(Cl)cc1C(F)(F)F)n1ccnc1", "outcome": "inactive"}, {"smiles": "CCC(C)c1cc([N+](=O)[O-])cc([N+](=O)[O-])c1O", "note": "(configuration not stated)", "AC50": "inconclusive: 25 µM"}, {"smiles": "CCOc1nc(F)cc2nc(S(=O)(=O)Nc3c(Cl)cccc3Cl)nn12", "AC50": "inconclusive: 25 µM"}, {"smiles": "O=[N+]([O-])c1ccccc1", "AC50": "inconclusive: 25 µM"}]}, {"target": "rat Serotonin, 5-Hydroxytryptamine Receptor (5HT), Non-Selective Binding, Htr1a (gene 24473) (UniProt P19327)", "assay": "NVS_GPCR_r5HT_NonSelective: NovaScreen (NVS) G Protein-Coupled Receptor Assay for rat Serotonin, 5-Hydroxytryptamine Receptor (5HT), Non-Selective Binding (AID 2283295)", "method_in_brief": "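Rat cortex membrane preparation incubated 1 h with radioligand and test chemical; bound radioactivity counted after filtration. Screening began in duplicate at 25 uM with concentration-series follow-up; fitting relative to DMSO.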", "values": [{"smiles": "Cc1ccc([N+](=O)[O-])cc1C", "outcome": "inactive"}, {"smiles": "COc1nc(NC(C)C)nc(NC(C)C)n1", "outcome": "inactive"}, {"smiles": "CN/C(=N\\[N+](=O)[O-])NCc1cnc(Cl)s1", "AC50": "inconclusive: 25 µM"}, {"smiles": "O=[N+]([O-])C(Br)(CO)CO", "outcome": "inactive"}, {"smiles": "CCOc1cccc(C2(N3CCN(c4ccccc4)CC3)CCC(C)CC2)c1", "note": "(configuration not stated)", "AC50": "inconclusive: 46.7 µM"}, {"smiles": "CCOC(=O)COc1cc(-c2nn(C)c(OC(F)F)c2Cl)c(F)cc1Cl", "outcome": "inactive"}, {"smiles": "O=C(Nc1ccccc1)Nc1cnns1", "AC50": "inconclusive: 0.0735 µM"}]}, {"tested_on": "rat Adrenergic, Alpha 1B Receptor (Adra1B), gene 24173", "assay": "NVS_GPCR_rAdra1B: NovaScreen (NVS) G Protein-Coupled Receptor Assay for rat Adrenergic, Alpha 1B Receptor (Adra1B) (AID 2283297)", "method_in_brief": "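Filter-binding radioligand competition on membranes from rat liver, read after 1 h by scintillation counting. Single-concentration duplicate screen at 25 uM, followed by concentration-response on actives, normalised to DMSO.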", "values": [{"smiles": "O=C(NC(=O)c1c(F)cccc1F)Nc1cc(Cl)c(OC(F)(F)C(F)F)c(Cl)c1", "AC50": "inconclusive: 6.11 µM"}, {"smiles": "COP(N)(=O)SC", "note": "(configuration not stated)", "AC50": "inconclusive: 25 µM"}, {"smiles": "CC1=C2C[C@H]3[C@@H](CC=C4C[C@@H](O)CC[C@@]43C)[C@@H]2CC[C@]12O[C@@H]1C[C@H](C)CN[C@H]1[C@H]2C", "outcome": "inactive"}, {"smiles": "O=[N+]([O-])c1ccccc1", "AC50": "inconclusive: 25 µM"}, {"smiles": "C=C(C)C(=O)[O][Sn]([CH2]CCC)([CH2]CCC)[CH2]CCC", "AC50": "active: 4.59 µM"}, {"smiles": "CCNP(=S)(OC)O/C(C)=C/C(=O)OC(C)C", "note": "(configuration not stated)", "AC50": "inconclusive: 25 µM"}]}, {"target": "rat Adrenergic Receptor, Beta (Adrb), Non-selective Binding, Adrb1 (gene 24925) (UniProt P18090)", "assay": "NVS_GPCR_rAdrb_NonSelective: NovaScreen (NVS) G Protein-Coupled Receptor Assay for rat Adrenergic Receptor, Beta (Adrb), Non-selective Binding (AID 2283298)", "method": "NVS_GPCR_rAdrb_NonSelective is a biochemical, single-readout assay that uses extracted gene-proteins from Rat cortical membranes in a tissue-based cell-free assay. Measurements were taken 1 hour after chemical dosing in a 48-well plate.NVS_GPCR_rAdrb_NonSelective is one of one assay component(s) measured or calculated from the NVS_GPCR_rAdrb_NonSelective assay. It is designed to make measurements of radioligand binding, a form of binding reporter, as detected with scintillation counting signals by Filter-based radiodetection technology.Data from the assay component NVS_GPCR_rAdrb_NonSelective was analyzed into 1 assay endpoint. This assay endpoint, NVS_GPCR_rAdrb_NonSelective, was analyzed in the positive analysis fitting direction relative to DMSO as the negative control and baseline of activity. Using a type of binding reporter, loss-of-signal activity can be used to understand changes in the binding as they relate to the gene Adrb1. Furthermore, this assay endpoint can be referred to as a primary readout, because the performed assay has only produced 1 assay endpoint. To generalize the intended target to other relatable targets, this assay endpoint is annotated to the gpcr intended target family, where the subfamily is rhodopsin-like receptor.\nBinding assays used specific radioligands (tritiated, iodinated) with non-radioactive competitive displacement ligands in agonist or antagonist protocols (as indicated) and various reference compounds and inhibitors to titrate specific binding to receptors and transporters. Most enzyme assays (CYPs, kinases, phosphatases, proteases, HDACs) used recombinant protein and specific substrates (fluorescence mostly, some colorimetric and radioactive) and inhibitors, followed by a biochemical separation of substrate and product. All assays for the biochemical HTS were initially run in duplicate at a single concentration (10 uM for CYP450 assays and 25 uM for all others). Assay-chemical combinations meeting a pre-defined threshold (e.g., 30% inhibition and other criteria defined below) were then run in singleton concentration-response format with maximum concentration of 20 uM for CYPs and 50 uM for all others. Each assay was run with positive and negative controls, and concurrent controls on every plate. The follow-up (secondary) screen tested active chemical-pairs in concentration series, as well as a few additional assays not tested in the primary screen, some selected negative inactives, and several cases re-run in the concentration series for confirmatory purposes.", "values": [{"smiles": "Cn1c(-c2ccccc2)cc(-c2ccccc2)[n+]1C", "AC50": "active: 9.62 µM"}, {"smiles": "CC[C@H](C)[C@H]1O[C@]2(C=C[C@@H]1C)C[C@@H]1C[C@@H](C/C=C(\\C)[C@@H](O[C@H]3C[C@H](OC)[C@@H](O[C@H]4C[C@H](OC)[C@@H](NC)[C@H](C)O4)[C@H](C)O3)[C@@H](C)/C=C/C=C3\\CO[C@@H]4[C@H](O)C(C)=C[C@@H](C(=O)O1)[C@]34O)O2", "outcome": "inactive"}, {"smiles": "Clc1ccc(C(c2ccc(Cl)cc2)C(Cl)Cl)cc1", "AC50": "inconclusive: 25 µM"}, {"smiles": "CCNP(=S)(OC)O/C(C)=C/C(=O)OC(C)C", "note": "(configuration not stated)", "outcome": "inactive"}]}]}
